Test results reported in PubChem BioAssay AID248 (DTP/NCI, 2004).
The list is a part of this screen's results and no random one: it is rich in T/C values a quarter to a half above the control, in often repeated tests (any T/C) and in doses without a T/C. Other doses and runs of a compound stand elsewhere. T/C gives the treated animals as a percentage of the vehicle group. Some doses have a count of surviving animals in place of a T/C: the source holds a T/C of zero for them, seemingly a mark for toxic or unscored doses. Some doses without a T/C left all or most animals alive at the check, yet need not have been tolerated: survival well below the control is almost never listed, so the zero probably covers shortened survival too. Survivors were counted at the toxicity check, usually on the fifth day, unless a day is given; later deaths do not show. Schedules are NCI's codes, taken here to give the interval after Q, in days (D) or hours (H), and the number of doses after X. Some doses were run more than once; the values are given in rising order. Some schedules carry Z or #; the key to these is not given. Where survival is the endpoint, this PubChem deposit counts one and a half times the control or more as active, and values a quarter to a half above the control carry no call in these data; other NCI protocols may use other cut-offs. Marks such as (2×) count equal records among those shown. Some T/C values are followed by the survivors on the day toxicity was checked, most often the fifth; without a count, all were alive then.

Tested on: L1210 leukemia ip in BDF1 mice, survival T/C
Experiment: NCI In Vivo Anticancer Drug Screen. Data for tumor model L1210 Leukemia (intraperitoneal) in B6D2F1 (BDF1) mice
Details: higher T/C = longer survival

N=C(N)SCc1c2ccccc2c(CSC(=N)N)c2ccccc12
survivor count (T/C endpoint: mean survival time, dose: 160.0 mg/kg/injection, schedule: Q01DX006 (iv), vehicle: carboxymethylcellulose (CMC)): 0 of 6
survivor count (T/C endpoint: mean survival time, dose: 160.0 mg/kg/injection, schedule: Q01DX006 (iv), vehicle: saline): 0 of 6
T/C (T/C endpoint: mean survival time, dose: 160.0 mg/kg/injection, schedule: Q01DX Z (im), vehicle: carboxymethylcellulose (CMC)): 127 % of control
survivor count (T/C endpoint: mean survival time, dose: 160.0 mg/kg/injection, schedule: Q01DX Z (ip), vehicle: carboxymethylcellulose (CMC)): 6 of 6
T/C (T/C endpoint: mean survival time, dose: 160.0 mg/kg/injection, schedule: Q#A X Z (ip), vehicle: carboxymethylcellulose (CMC)): 127 % of control [5 of 6 alive]
survivor count (T/C endpoint: mean survival time, dose: 194.0 mg/kg/injection, schedule: Q## X008 (ip), vehicle: carboxymethylcellulose (CMC)): 2 of 10
T/C (T/C endpoint: mean survival time, dose: 200.0 mg/kg/injection, schedule: Q01DX001 (ip), vehicle: carboxymethylcellulose (CMC)): 112, 123, 125, 140, 215 % of control
T/C (T/C endpoint: mean survival time, dose: 200.0 mg/kg/injection, schedule: Q01DX001 (ip), vehicle: saline): 145 % of control
T/C (T/C endpoint: mean survival time, dose: 200.0 mg/kg/injection, schedule: Q01DX009 (ip), vehicle: carboxymethylcellulose (CMC)): 130 % of control
T/C (T/C endpoint: mean survival time, dose: 200.0 mg/kg/injection, schedule: Q01DX015 (ip), vehicle: carboxymethylcellulose (CMC)): 140 % of control
survivor count (T/C endpoint: mean survival time, dose: 200.0 mg/kg/injection, schedule: Q01DX015 (ip), vehicle: clinical formulation): 0 of 6
T/C (T/C endpoint: mean survival time, dose: 200.0 mg/kg/injection, schedule: Q04DX005 (ip), vehicle: carboxymethylcellulose (CMC)): 139 % of control
survivor count (T/C endpoint: mean survival time, dose: 200.0 mg/kg/injection, schedule: Q06HX004 (ip), vehicle: carboxymethylcellulose (CMC)): 8 of 10 and 10 of 10
survivor count (T/C endpoint: mean survival time, dose: 200.0 mg/kg/injection, schedule: Q06HX004 (ip), vehicle: saline): 10 of 10
survivor count (T/C endpoint: mean survival time, dose: 200.0 mg/kg/injection, schedule: Q08DX002 (ip), vehicle: clinical formulation): 0 of 6
T/C (T/C endpoint: mean survival time, dose: 200.0 mg/kg/injection, schedule: Q08DX002 (ip), vehicle: saline, evaluated on day 30): 103, 214, 238 % of control
T/C (T/C endpoint: mean survival time, dose: 200.0 mg/kg/injection, schedule: Q08DX002 (ip), vehicle: saline, run until all animals had died): 189 % of control
T/C (T/C endpoint: mean survival time, dose: 200.0 mg/kg/injection, schedule: Q12HX002 (ip), vehicle: carboxymethylcellulose (CMC)): 128 % of control
T/C (T/C endpoint: mean survival time, dose: 256.0 mg/kg/injection, schedule: Q## X003 (ip), vehicle: carboxymethylcellulose (CMC)): 149 % of control
T/C (T/C endpoint: mean survival time, dose: 280.0 mg/kg/injection, schedule: Q01DX001 (ip), vehicle: carboxymethylcellulose (CMC)): 133 and 138 % of control
T/C (T/C endpoint: mean survival time, dose: 280.0 mg/kg/injection, schedule: Q07DX003 (ip), vehicle: carboxymethylcellulose (CMC)): 149 % of control
survivor count (T/C endpoint: mean survival time, dose: 300.0 mg/kg/injection, schedule: Q08DX002 (ip), vehicle: clinical formulation): 0 of 6
survivor count (T/C endpoint: mean survival time, dose: 320.0 mg/kg/injection, schedule: Q01DX006 (iv), vehicle: carboxymethylcellulose (CMC)): 0 of 6
survivor count (T/C endpoint: mean survival time, dose: 320.0 mg/kg/injection, schedule: Q01DX006 (iv), vehicle: saline): 0 of 6
T/C (T/C endpoint: mean survival time, dose: 320.0 mg/kg/injection, schedule: Q01DX Z (im), vehicle: carboxymethylcellulose (CMC)): 132 % of control
T/C (T/C endpoint: mean survival time, dose: 400.0 mg/kg/injection, schedule: Q01DX001 (ip), vehicle: carboxymethylcellulose (CMC)): 126 (2×), 128, 190 % of control
T/C (T/C endpoint: mean survival time, dose: 400.0 mg/kg/injection, schedule: Q01DX001 (ip), vehicle: saline): 143 % of control
T/C (T/C endpoint: mean survival time, dose: 400.0 mg/kg/injection, schedule: Q01DX Z (ip), vehicle: carboxymethylcellulose (CMC)): 126 % of control
T/C (T/C endpoint: mean survival time, dose: 400.0 mg/kg/injection, schedule: Q04DX003 (ip), vehicle: carboxymethylcellulose (CMC)): 132 % of control
T/C (T/C endpoint: mean survival time, dose: 400.0 mg/kg/injection, schedule: Q08DX003 (ip), vehicle: carboxymethylcellulose (CMC)): 138 % of control
survivor count (T/C endpoint: mean survival time, dose: 400.0 mg/kg/injection, schedule: Q#A X002 (ip), vehicle: saline): 10 of 10
T/C (T/C endpoint: mean survival time, dose: 560.0 mg/kg/injection, schedule: Q07DX003 (ip), vehicle: carboxymethylcellulose (CMC)): 144 % of control
survivor count (T/C endpoint: mean survival time, dose: 640.0 mg/kg/injection, schedule: Q01DX006 (iv), vehicle: saline): 0 of 6
survivor count (T/C endpoint: mean survival time, dose: 640.0 mg/kg/injection, schedule: Q#A X Z (ip), vehicle: carboxymethylcellulose (CMC)): 5 of 6
T/C (T/C endpoint: mean survival time, dose: 800.0 mg/kg/injection, schedule: Q01DX001 (ip), vehicle: carboxymethylcellulose (CMC)): 91, 128, 138, 162 % of control
survivor count (T/C endpoint: mean survival time, dose: 800.0 mg/kg/injection, schedule: Q01DX001 (ip), vehicle: saline): 10 of 10
survivor count (T/C endpoint: mean survival time, dose: 800.0 mg/kg/injection, schedule: Q07DX Z (ip), vehicle: saline): 3 of 6
survivor count (T/C endpoint: mean survival time, dose: 800.0 mg/kg/injection, schedule: Q08DX002 (ip), vehicle: saline): 9 of 10
survivor count (T/C endpoint: mean survival time, dose: 1600.0 mg/kg/injection, schedule: Q07DX Z (ip), vehicle: saline): 2 of 6
T/C (T/C endpoint: median survival time, dose: 62.5 mg/kg/injection, schedule: Q01DX001 (ip), vehicle: steroid suspending solution): 144 % of control
T/C (T/C endpoint: median survival time, dose: 100.0 mg/kg/injection, schedule: Q01DX009 (sc), vehicle: steroid suspending solution): 127 % of control
survivor count (T/C endpoint: median survival time, dose: 200.0 mg/kg/injection, schedule: Q01DX009 (ip), vehicle: steroid suspending solution): 8 of 8
survivor count (T/C endpoint: median survival time, dose: 200.0 mg/kg/injection, schedule: Q04DX003 (ip), vehicle: steroid suspending solution): 8 of 8
T/C (T/C endpoint: median survival time, dose: 250.0 mg/kg/injection, schedule: Q01DX001 (ip), vehicle: steroid suspending solution): 127 % of control
survivor count (T/C endpoint: median survival time, dose: 400.0 mg/kg/injection, schedule: Q04DX003 (ip), vehicle: steroid suspending solution): 8 of 8
survivor count (T/C endpoint: median survival time, dose: 500.0 mg/kg/injection, schedule: Q01DX001 (ip), vehicle: steroid suspending solution): 6 of 8
survivor count (T/C endpoint: median survival time, dose: 1000.0 mg/kg/injection, schedule: Q01DX001 (ip), vehicle: steroid suspending solution): 1 of 8
survivor count (T/C endpoint: median survival time, dose: 2000.0 mg/kg/injection, schedule: Q01DX001 (sc), vehicle: steroid suspending solution): 1 of 8
